From PubChem BioAssay AID180 (DTP/NCI, 2004) come the findings set out here.

The list does not hold the whole screen: it is rich in T/C values a quarter to a half above the control, in often repeated tests (any T/C) and in doses without a T/C. Further doses and runs are listed elsewhere. T/C gives the treated animals as a percentage of the vehicle group. Schedule codes are those of the source, taken here to give the interval after Q, in days (D) or hours (H), and the number of doses after X. Some T/C values carry the count of animals alive at the toxicity check (mostly the fifth day); where none is given, no animal had died by that day. Some entries were tested several times; the results are listed from low to high. Additions like (4×) stand for listed records that agree. Some doses have a count of surviving animals in place of a T/C: the source files T/C as zero there, which appears to mark a toxic dose or a test without result, not a measured value. Counts of survivors are from the toxicity check (mostly the fifth day) where no day follows; animals may have died later.

This test relates to BDF1 mice, Adenocarcinoma 755 s.c., tumor weight T/C. The test can be described thus: NCI In Vivo Anticancer Drug Screen. Data for tumor model Adenocarcinoma 755 (subcutaneous) in B6D2F1 (BDF1) mice. To be noted: T/C endpoint: mean tumor weight, higher T/C = larger tumour; for T/C: evaluated on day 12. In a few lines: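 Compound activity was tested in mice carrying transplanted tumors. Survival or tumor size was measured, and each value is the treated-group measurement divided by that of the vehicle-treated control group (T/C).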

[1] abbreviates: dose: 200.0 mg/kg/injection, schedule: Q01DX011 (ip), vehicle: methylcellulose (MC).
[2] abbreviates: dose: 300.0 mg/kg/injection, schedule: Q01DX011 (ip), vehicle: methylcellulose (MC).
The mark [3] stands for this setting: dose: 400.0 mg/kg/injection, schedule: Q01DX011 (ip), vehicle: carboxymethylcellulose (CMC).

In the case of `OCC1OC(n2cnc3c(=S)nc[nH]c32)C(O)C1O` (centres undefined), the T/C (dose: 0.15 mg/kg/injection, schedule: Q01DX011 (ip), vehicle: methylcellulose (MC)) is 17 [8 of 10 alive], 36, 38, 39 [8 of 10 alive], 46 [9 of 10 alive], 48, 49, 59, 61 [9 of 10 alive], 79, 84, 89 % of control [9 of 10 alive]; the T/C (dose: 0.6 mg/kg/injection, schedule: Q01DX011 (ip), vehicle: methylcellulose (MC)) is 29, 32, 33 [8 of 10 alive], 37, 40, 46 [9 of 10 alive], 56, 59, 62, 62 [9 of 10 alive], 70, 72 % of control; the T/C (dose: 1.5 mg/kg/injection, schedule: Q01DX011 (ip), vehicle: methylcellulose (MC)) is 5 [7 of 10 alive], 12 [7 of 10 alive], 12 [8 of 10 alive], 23 (2×), 24 [8 of 10 alive], 28 [9 of 10 alive], 33, 57 % of control [8 of 10 alive]; the T/C (dose: 2.5 mg/kg/injection, schedule: Q01DX011 (ip), vehicle: methylcellulose (MC)) was 3 [9 of 10 alive], 5 [9 of 10 alive] (2×), 8 [9 of 10 alive], 10, 11, 14, 15, 16 [9 of 10 alive], 17, 17 [8 of 10 alive], 19 % of control [9 of 10 alive]; the T/C (dose: 3.0 mg/kg/injection, schedule: Q01DX011 (ip), vehicle: methylcellulose (MC)) was 4 [8 of 10 alive], 5 [8 of 10 alive], 6 [8 of 10 alive], 7, 8 [9 of 10 alive], 11, 21, 28, 35 % of control [9 of 10 alive]; the T/C (dose: 6.0 mg/kg/injection, schedule: Q01DX011 (ip), vehicle: methylcellulose (MC)) was 1 [8 of 10 alive], 1 [9 of 10 alive], 2, 4 [9 of 10 alive], 7 [8 of 10 alive], 8, 8 [8 of 10 alive], 9 [9 of 10 alive], 10 % of control [9 of 10 alive]. Besides, the T/C by setting is: (dose: 10.0 mg/kg/injection, schedule: Q01DX011 (ip), vehicle: methylcellulose (MC)) 3 (2×), 3 [8 of 10 alive], 3 [9 of 10 alive], 5, 6 (3×), 6 [8 of 10 alive], 8 [9 of 10 alive], 12 % of control; (dose: 12.0 mg/kg/injection, schedule: Q01DX011 (ip), vehicle: methylcellulose (MC)) 1, 2, 3, 4 [9 of 10 alive], 5 (2×), 6, 8 [9 of 10 alive], 10 % of control [9 of 10 alive]; (dose: 50.0 mg/kg/injection, schedule: Q01DX011 (ip), vehicle: methylcellulose (MC)) 1, 2 [8 of 10 alive], 3 (2×), 3 [7 of 10 alive], 3 [8 of 10 alive], 4, 5 [9 of 10 alive], 6 % of control; under setting [1], 1 [9 of 10 alive] (2×), 2 [7 of 10 alive], 2 [8 of 10 alive], 3 [9 of 10 alive], 4 [8 of 10 alive], 5 [7 of 10 alive], 6 [8 of 10 alive], 6 % of control [9 of 10 alive]; under setting [2], 1 [8 of 10 alive], 1 [9 of 10 alive] (2×), 3 [8 of 10 alive] (2×), 6 [7 of 10 alive], 7 % of control [7 of 10 alive]. The survivor count by setting is: (dose: 80.0 mg/kg/injection, schedule: Q01DX010 (oral), vehicle: saline) 4 of 10; (dose: 160.0 mg/kg/injection, schedule: Q01DX010 (oral), vehicle: saline) 0 of 10; (dose: 160.0 mg/kg/injection, schedule: Q01DX011 (ip), vehicle: alkali diluted with saline) 5 of 10; (dose: 300.0 mg/kg/injection, schedule: Q01DX011 (ip), vehicle: carboxymethylcellulose (CMC)) 5 of 10; under setting [2], 4 of 10 and 6 of 10; (dose: 320.0 mg/kg/injection, schedule: Q01DX010 (oral), vehicle: saline) 0 of 10. Also, the survivor count (dose: 350.0 mg/kg/injection, schedule: Q01DX011 (ip), vehicle: carboxymethylcellulose (CMC)) is 6 of 10; the survivor count under setting [3] is on record as 5 of 10; the survivor count (dose: 480.0 mg/kg/injection, schedule: Q03DX004 (oral), vehicle: alkali diluted with saline) is reported as 5 of 10; the survivor count (dose: 640.0 mg/kg/injection, schedule: Q01DX001 (ip), vehicle: alkali diluted with saline) is 3 of 10; the survivor count (dose: 640.0 mg/kg/injection, schedule: Q03DX004 (ip), vehicle: alkali diluted with saline) is 4 of 10; the survivor count (dose: 960.0 mg/kg/injection, schedule: Q01DX001 (ip), vehicle: alkali diluted with saline) is 2 of 10.

As for `C=CCC1(CC)C(=O)NC(=O)NC1=O`, the T/C (dose: 25.0 mg/kg/injection, schedule: Q01DX011 (ip), vehicle: methylcellulose (MC)) is 125 % of control. For the same compound, the survivor count (dose: 200.0 mg/kg/injection, schedule: Q01DX011 (ip), vehicle: carboxymethylcellulose (CMC)) was 0 of 10; the survivor count (dose: 340.0 mg/kg/injection, schedule: Q01DX011 (ip), vehicle: carboxymethylcellulose (CMC)) is 0 of 10; the survivor count under setting [3] is 0 of 10; the survivor count (dose: 800.0 mg/kg/injection, schedule: Q01DX011 (ip), vehicle: carboxymethylcellulose (CMC)) is listed as 0 of 10; the survivor count (dose: 1600.0 mg/kg/injection, schedule: Q01DX011 (ip), vehicle: carboxymethylcellulose (CMC)) is 0 of 10.

Consider `CC(C)Cn1cnc2c(SCc3ccccn3)nc(N)nc21`, for which the survivor count under setting [1] was 2 of 10.

As for `Cn1cnc(=S)c2[nH]cnc21`, the survivor count (dose: 600.0 mg/kg/injection, schedule: Q01DX011 (ip), vehicle: carboxymethylcellulose (CMC)) is 6 of 10.

Take `CSc1nc(Cl)cc(NC(=O)CCl)n1`: for the setting “dose: 30.0 mg/kg/injection, schedule: Q01DX011 (ip), vehicle: carboxymethylcellulose (CMC)”, the T/C is 140 % of control [8 of 10 alive]. In addition, the survivor count (dose: 120.0 mg/kg/injection, schedule: Q01DX011 (ip), vehicle: carboxymethylcellulose (CMC)) was 0 of 10 and the survivor count (dose: 240.0 mg/kg/injection, schedule: Q01DX011 (ip), vehicle: carboxymethylcellulose (CMC)) was 0 of 10.

In the case of `C/C(=N\NC(=O)c1ccncc1)c1ccccc1Cl`, the survivor count (dose: 120.0 mg/kg/injection, schedule: Q01DX011 (ip), vehicle: methylcellulose (MC)) was 4 of 10.

As to `CC(C)OC(=O)C1(N)CCCC1`, the survivor count runs as follows: (dose: 112.0 mg/kg/injection, schedule: Q01DX011 (ip), vehicle: carboxymethylcellulose (CMC)) 6 of 10; (dose: 120.0 mg/kg/injection, schedule: Q01DX011 (ip), vehicle: other) 4 of 10.

Turning to `C[C@]12CC[C@H](OC3OC(CO)C(O)C(O)C3O)C[C@H]1CC[C@@H]1[C@@H]2CC[C@]2(C)[C@@H](C3=CCOC3=O)CC[C@]12O` (some centres undefined), the survivor count is reported as 5 of 10 (dose: 1.0 mg/kg/injection, schedule: Q01DX011 (ip), vehicle: saline); 1 of 10 (dose: 2.0 mg/kg/injection, schedule: Q01DX011 (ip), vehicle: saline); 0 of 10 (dose: 4.0 mg/kg/injection, schedule: Q01DX011 (ip), vehicle: saline).

`SCc1ccccn1`: the T/C is, setting by setting: (dose: 75.5 mg/kg/injection, schedule: Q01DX011 (ip), vehicle: carboxymethylcellulose (CMC)) 136 % of control [8 of 10 alive]; (dose: 150.0 mg/kg/injection, schedule: Q01DX011 (ip), vehicle: carboxymethylcellulose (CMC)) 128 % of control [9 of 10 alive].

Regarding `N#[N+]c1n[nH]nc1C(N)=O`, where the note is “dose: 25.0 mg/kg/injection, schedule: Q01DX011 (ip), vehicle: carboxymethylcellulose (CMC)”, the survivor count is given as 4 of 10.

For `O=P1(N(CCF)CCF)NCCCO1` (centres undefined), the survivor count (dose: 30.0 mg/kg/injection, schedule: Q01DX011 (ip), vehicle: saline) was 4 of 10.
